Test results taken from PubChem BioAssay AID540303 (National Center for Advancing Translational Sciences (NCATS), 2011).
Among all 330,000 compounds or so, about 1,000 (0.3%) were called active. Inconclusive means that the source gave no clear call. Such entries were picked first, then a sample of the others. Calls follow the shape of the dose curve; as a rule, active = well fitted inhibition curve with a large enough effect; inconclusive = small, poorly fitted or top-dose-only effect; inactive = no such curve, though single readings can be large or run the other way; tested in mouse RAW 264.7 cells. Where the call is inconclusive, the potency comes from a doubtful curve fit.

Experiment: qHTS for Inhibitors of Cell Surface uPA Generation; also: nearly all actives have a fitted effect of over 55% in size
Settings: cell surface uPA generation assay; series mostly up to 38.3 µM
How it was run: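 Validation set in qHTS format. RAW 264.7 cells were pre-plated overnight and then exposed to compounds (up to 38.3 uM final) for 24 h at 37 C in 5% CO2, followed by a luminescent ATP-Lite measurement.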
Potency is read from the fitted curve at half-maximal effect.

Row | Structure (SMILES) | Potency
1 | C/C=C(\C)C(=O)OC1[C@H](OC(C)=O)C2(CO)C(CC1(C)C)C1=CCC3C4(C)CCC(O[C@@H]5O[C@H](C(=O)O)[C@@H](O[C@@H]6O[C@H](CO)[C@@H](O)[C@H](O)[C@H]6O)[C@H](O)[C@H]5O[C@H]5O[C@H](CO)[C@@H](O)[C@H](O)[C@H]5O)[C@](C)(CO)C4CCC3(C)[C@]1(C)C[C@H]2O (stereo not given in full) | inconclusive: 20 µM [inhibitor, single point]
2 | CCCCC(=O)Nc1ccc(C)c(S(=O)(=O)N2CCCCCC2)c1 | inconclusive: 10 µM [inhibitor, partial curve, poor fit]
3 | COC(=O)C/C=C/N(Cc1ccccc1OC)S(=O)(=O)CCl | inconclusive: 10 µM [inhibitor, partial curve, poor fit]
4 | COc1ccc(NC2CS(=O)(=O)CC2NCc2ccccc2)cc1 (stereo not given) | inactive
5 | Cc1ccc(C(C)C)c(OCCNCCc2ccccc2)c1 | inactive
6 | COc1ccc(S(=O)(=O)NCCCCCC(=O)O)cc1C(=O)O | inconclusive: 2 µM [inhibitor, partial curve, poor fit]
7 | O=S(=O)(c1c(F)cccc1F)N(CCc1ccc(F)cc1)C[C@@H](O)COCc1ccccc1 | inconclusive: 22.4 µM [inhibitor, single point]
8 | Cc1c(C(=O)Nc2nccs2)oc2ccc(F)cc12 | inconclusive: 2.51 µM [inhibitor, partial curve, poor fit]
9 | O=C(Nc1nccs1)c1cc2c(s1)-c1ccccc1OC2 | inconclusive: 14.1 µM [inhibitor, single point]
10 | CN(C)CCOc1cc(Cl)cc(Cl)c1 | inconclusive: 1 µM [inhibitor, full curve, poor fit]
11 | CC(C)(C(=O)N[C@H](CO)c1ccccc1)C(=O)N[C@H](CO)c1ccccc1 | inactive
12 | Cc1ccccc1Nc1nc(NCc2ccco2)c2ccccc2n1 | inconclusive: 11.2 µM [inhibitor, single point]
13 | N=c1n(CC(=O)c2cccc([N+](=O)[O-])c2)c2ccccc2n1Cc1ccccc1 | inactive
14 | Nc1nc2nc(-c3ccccc3)cc(C(F)(F)F)c2s1 | inactive
15 | Cc1nc(CN(C)Cc2nc(Cc3ccccc3Cl)no2)cs1 | inactive
16 | Cc1cc2c(=O)[nH]c(Cc3ccccc3)nc2s1 | inactive
17 | CCC(C)Nc1ccc(NC(C)CC)cc1 (stereo not given) | inconclusive: 8.91 µM [inhibitor, partial curve, poor fit]
18 | Cc1nc(SCC(=O)N(C)C2(C#N)CCCCC2)c2ccccc2n1 | inconclusive: 7.94 µM [inhibitor, single point]
19 | COc1cc(OC)cc(C(=O)N[C@H](C(=O)OCC(=O)Nc2cccc(F)c2)C(C)C)c1 | inactive
20 | COc1ccc(C2C=C(c3ccc(F)cc3)NC(=S)N2)cc1OC (stereo not given) | inactive
21 | COc1ccc(S(=O)(=O)Cc2ccc(C(=O)N3CCN(c4cccc(C)c4C)CC3)o2)cc1 | inconclusive: 22.4 µM [inhibitor, single point]
22 | CCN(CC)C(=O)[C@H]1C[C@H](CC(=O)NCc2ccco2)C(=O)N2CCc3c([nH]c4cc(-c5ccco5)ccc34)[C@]12C | inconclusive: 15.8 µM [inhibitor, single point]
23 | O=C(NCCN1CCOCC1)c1cc(-c2ccc(Cl)cc2Cl)on1 | inactive
24 | Cn1nc(C(F)(F)F)c(-c2ccccc2)c1NC(=O)CSCC(=O)O | inactive

Row | Structure (SMILES) | Potency
25 | CC/C(=N\NC(=O)c1nnn(-c2nonc2N)c1-c1cccs1)c1ccccc1 | inactive
26 | COC(=O)C1=C(C(=O)OC)[C@]2([C@H]3CCCCN[C@@H](Cc4ccccc4)C(=O)N3Cc3ccccc3)C=C[C@H]1O2 | inconclusive: 10 µM [inhibitor, single point]
27 | CCOc1ccc(S(=O)(=O)N(CC)CC(=O)NC2CCS(=O)(=O)C2)cc1 (stereo not given) | inconclusive: 0.794 µM [inhibitor, full curve, poor fit]
28 | CN(Cc1ccccc1)C(=O)c1ccc([N+](=O)[O-])o1 | inconclusive: 10 µM [inhibitor, partial curve, poor fit]
29 | COc1ccc(C2=NN(C(N)=S)C(c3ccco3)C2)cc1 (stereo not given) | inactive
30 | Cc1cccc(-n2ncc(Cl)c(Cl)c2=O)c1 | active: 10 µM
31 | CCOc1ccc(S(=O)(=O)n2cnc(C)c2)cc1 | inconclusive: 12.6 µM [inhibitor, partial curve, poor fit]
32 | CC1CCN(C(=O)c2ccc(S(=O)(=O)Cc3cccc(F)c3)c([N+](=O)[O-])c2)CC1 | inactive
33 | CC1(C)CC(=O)C=C(c2cccs2)C1 | inconclusive: 14.1 µM [inhibitor, single point]
34 | CCOc1ncccc1C(=O)Nc1nnc(C(CC)CC)s1 | inconclusive: 6.31 µM [inhibitor, partial curve, poor fit]
35 | Cc1ccc(S(=O)(=O)N(C)c2ccc(OCC(=O)OCc3nnc(-c4ccccc4)o3)cc2)cc1 | inactive
36 | CC1=Nc2cc(C(=O)NCC3CCCO3)ccc2Sc2ccc(C)cc21 (stereo not given) | inconclusive: 0.355 µM [inhibitor, partial curve, poor fit]
37 | CC[n+]1cc(C)ccc1/C=C/c1ccc(N(C)C)cc1 | inconclusive: 1 µM [inhibitor, partial curve, poor fit]
38 | O=C(Nc1nc2ccccc2s1)c1c(F)cccc1Cl | inactive
39 | CN(C)S(=O)(=O)c1ccc2c(c1)/C(=C/c1cc3c([nH]1)CCCC3)C(=O)N2 | inconclusive: 1 µM [inhibitor, full curve, poor fit]
40 | C[C@H](NC(=O)c1[nH]cnc1C(=O)Nc1ccc(CNC(=O)OC(C)(C)C)cc1)C(=O)OCc1ccccc1 | inconclusive: 11.2 µM [inhibitor, single point]
41 | Cc1ccc(C(NC(=O)NC(C)c2ccccc2)C(Cl)(Cl)Cl)cc1F (stereo not given) | inactive
42 | S=C(Nc1ccc2c(c1)OCO2)Nc1ccccc1Cl | inactive
43 | O=C(Cn1nnc(-c2ccc(Cl)cc2)n1)N1CCN(C(=O)c2ccco2)CC1 | inconclusive: 2.24 µM [inhibitor, single point]
44 | CCN(CCO)Cc1csc2ccc(C(C)(C)C)cc12 | inactive
45 | CC(C)(C)[C@H]1C=C(C(=O)NCc2nc3ccccc3[nH]2)O[C@@H](OCCCCO)C1 | inactive
46 | NC1=NC(c2ccc(Cl)cc2)N(c2ccc(S(N)(=O)=O)cc2)C(N)=N1 (stereo not given) | inconclusive: 3.16 µM [inhibitor, single point]
47 | O=C(O)c1cccc(-c2ccc(/C=N/Nc3ccc([N+](=O)[O-])cc3)o2)c1 | inactive
48 | NNC(=O)c1[nH]c2ccccc2c1-c1ccccc1 | inconclusive: 5.01 µM [inhibitor, single point]

Reformatted: results already given.
Row,Structure (SMILES),Potency
31,CCOc1ccc(S(=O)(=O)n2cnc(C)c2)cc1,"inconclusive: 12.6 µM [inhibitor, partial curve, poor fit]"
32,CC1CCN(C(=O)c2ccc(S(=O)(=O)Cc3cccc(F)c3)c([N+](=O)[O-])c2)CC1,inactive

Later entries.

Row | Structure (SMILES) | Potency
49 | CC1Cc2cc(S(=O)(=O)CCC(=O)NCc3ccco3)ccc2N1C(=O)C1CC1 (stereo not given) | inconclusive: 12.6 µM [inhibitor, single point]
50 | COCCNC(=S)N(CCO)Cc1cc2cc3c(cc2[nH]c1=O)OCCO3 | inconclusive: 3.16 µM [inhibitor, partial curve, poor fit]
51 | Cc1ccc(OCC(=O)N/N=C/c2cn(Cc3ccccc3)c3ccccc23)cc1 | inactive
52 | CCCCCCCN1C(N(C)C)=NC[C@@H]1Cc1ccccc1 | inconclusive: 8.91 µM [inhibitor, partial curve]
53 | COc1ccc(-n2nc(C(=O)NCCCN3CCOCC3)c3ccccc3c2=O)c(OC)c1 | inactive
54 | COc1cc2ccccc2cc1C(=O)Nc1nccs1 | inconclusive: 22.4 µM [inhibitor, partial curve, poor fit]
55 | COc1ccc(C(=O)C2C(c3ccc(-c4ccccc4[N+](=O)[O-])o3)NC(=O)NC2(O)C(F)(F)F)cc1 (stereo not given) | inactive
56 | COc1ccccc1NS(=O)(=O)c1ccc(-c2cc(C)no2)s1 | inconclusive: 1.41 µM [inhibitor, full curve]
57 | Cc1ccc2c(c1)C(=O)N1[C@H]3c4cc(Br)ccc4OC[C@@H]3[C@H](c3ccccc3)[C@]1(C)C(=O)N2 | inconclusive: 12.6 µM [inhibitor, single point]
58 | Cc1ccc(-n2c(C)nc3c(cnn3-c3ccc(C)c(C)c3)c2=O)cc1C | inactive
59 | Cc1ccc(OCC(=O)Nc2ccccc2N2CCOCC2)c(C)c1 | inactive
60 | Cc1ccc(C2N(C)C(=O)c3ccccc3N2C)cc1 (stereo not given) | inactive
61 | COc1ccc(C2=CSC3=C(C(=O)c4cccc(S(=O)(=O)N(C)C)c4)CCN23)cc1 | inactive
62 | Cc1ccc(NC(=O)c2cnn(-c3ccccc3)c2NC(=O)c2ccco2)cc1 | inactive
63 | CCOc1ccc(N(CC(=O)Nc2cccc(Cl)c2)S(=O)(=O)c2c(C)noc2C)cc1 | inconclusive: 28.2 µM [inhibitor, single point]
64 | CCN1CCN(CCCNC(=O)C2CCN(c3nnc(-n4c(C)ccc4C)s3)CC2)CC1 | inconclusive: 12.6 µM [inhibitor, single point]
65 | Cc1cccc(CC(C)NC(=O)CCc2nnc(-c3ccccc3)o2)n1 (stereo not given) | inactive
66 | O=C(CNC(=O)N1CC(=O)Nc2ccccc21)Nc1cc(Cl)ccc1Cl | inconclusive: 3.55 µM [inhibitor, partial curve, poor fit]
67 | CCCc1ccc(C(=O)NNC(=O)c2ccc(Br)cc2)cc1 | inactive
68 | CC(C)c1ccc(NC(=O)CN2C(=O)NC(Cc3c[nH]c4ccccc34)C2=O)cc1 (stereo not given) | inconclusive: 11.2 µM [inhibitor, partial curve]
69 | Cn1c(Nc2ccccc2)nc2ccccc21 | inconclusive: 31.6 µM [inhibitor, partial curve, poor fit]
70 | CCn1cc(C(=O)N2CCCC2)c(=O)c2cc(S(=O)(=O)N3CC(C)CC(C)C3)ccc21 (stereo not given) | inactive

Excerpt: entries 14 to 16
Row | Structure (SMILES) | Potency
14 | Nc1nc2nc(-c3ccccc3)cc(C(F)(F)F)c2s1 | inactive
15 | Cc1nc(CN(C)Cc2nc(Cc3ccccc3Cl)no2)cs1 | inactive
16 | Cc1cc2c(=O)[nH]c(Cc3ccccc3)nc2s1 | inactive
